Reference: the supplement of paper PMC10849652
This is one part of the list.

By UniProt entry, the sequences of proteins in these tests, tags left out. Where a name states a change or a piece, a line headed by the entry shows the natural chain unless it says otherwise.
UniProt Q5VTE6: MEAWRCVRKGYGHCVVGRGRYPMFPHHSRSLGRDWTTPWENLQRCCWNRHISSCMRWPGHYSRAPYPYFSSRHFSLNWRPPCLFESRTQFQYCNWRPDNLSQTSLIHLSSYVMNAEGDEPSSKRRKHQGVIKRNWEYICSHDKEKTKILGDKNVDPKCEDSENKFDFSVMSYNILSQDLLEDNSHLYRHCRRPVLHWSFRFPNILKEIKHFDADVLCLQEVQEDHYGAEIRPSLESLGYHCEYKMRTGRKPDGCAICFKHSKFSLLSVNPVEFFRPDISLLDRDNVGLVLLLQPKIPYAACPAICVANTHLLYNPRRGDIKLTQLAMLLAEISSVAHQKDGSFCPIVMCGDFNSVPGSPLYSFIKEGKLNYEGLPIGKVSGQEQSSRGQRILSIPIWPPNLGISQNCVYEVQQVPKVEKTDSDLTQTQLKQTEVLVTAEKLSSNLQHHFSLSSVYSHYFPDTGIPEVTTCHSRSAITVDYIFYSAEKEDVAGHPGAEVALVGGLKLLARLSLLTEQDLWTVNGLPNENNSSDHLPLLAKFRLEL
UniProt Q9C0C7: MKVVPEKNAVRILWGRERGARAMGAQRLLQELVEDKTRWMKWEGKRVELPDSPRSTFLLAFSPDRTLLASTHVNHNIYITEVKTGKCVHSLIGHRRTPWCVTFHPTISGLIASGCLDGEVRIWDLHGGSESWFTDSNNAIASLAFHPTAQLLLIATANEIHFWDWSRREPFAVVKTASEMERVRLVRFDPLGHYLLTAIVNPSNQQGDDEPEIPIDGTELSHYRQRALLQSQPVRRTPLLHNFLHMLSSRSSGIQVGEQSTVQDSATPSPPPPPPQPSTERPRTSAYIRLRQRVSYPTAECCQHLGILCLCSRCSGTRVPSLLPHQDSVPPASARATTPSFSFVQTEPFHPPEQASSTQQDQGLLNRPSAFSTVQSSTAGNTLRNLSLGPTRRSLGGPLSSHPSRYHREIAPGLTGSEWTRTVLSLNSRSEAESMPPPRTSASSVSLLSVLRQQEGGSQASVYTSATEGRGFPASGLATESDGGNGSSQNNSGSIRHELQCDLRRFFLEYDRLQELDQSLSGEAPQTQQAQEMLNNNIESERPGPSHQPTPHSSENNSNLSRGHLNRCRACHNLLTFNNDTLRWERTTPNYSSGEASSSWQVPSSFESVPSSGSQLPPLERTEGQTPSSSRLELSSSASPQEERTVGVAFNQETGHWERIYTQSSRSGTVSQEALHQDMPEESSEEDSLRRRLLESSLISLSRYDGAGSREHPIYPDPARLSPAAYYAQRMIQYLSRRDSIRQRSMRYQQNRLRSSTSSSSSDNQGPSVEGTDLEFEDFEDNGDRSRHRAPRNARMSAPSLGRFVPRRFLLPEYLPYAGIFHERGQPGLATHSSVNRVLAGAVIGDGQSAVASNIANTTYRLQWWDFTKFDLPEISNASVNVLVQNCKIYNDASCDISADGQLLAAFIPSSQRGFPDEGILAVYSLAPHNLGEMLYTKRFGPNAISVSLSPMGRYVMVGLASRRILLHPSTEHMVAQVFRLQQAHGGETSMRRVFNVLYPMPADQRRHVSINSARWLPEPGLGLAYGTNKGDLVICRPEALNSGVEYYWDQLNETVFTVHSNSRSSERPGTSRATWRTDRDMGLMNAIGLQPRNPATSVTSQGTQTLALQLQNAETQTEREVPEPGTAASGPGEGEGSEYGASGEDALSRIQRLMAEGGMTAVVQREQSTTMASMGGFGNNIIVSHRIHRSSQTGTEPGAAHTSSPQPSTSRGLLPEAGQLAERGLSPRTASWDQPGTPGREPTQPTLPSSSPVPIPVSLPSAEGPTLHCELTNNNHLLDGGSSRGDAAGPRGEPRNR
UniProt P51649: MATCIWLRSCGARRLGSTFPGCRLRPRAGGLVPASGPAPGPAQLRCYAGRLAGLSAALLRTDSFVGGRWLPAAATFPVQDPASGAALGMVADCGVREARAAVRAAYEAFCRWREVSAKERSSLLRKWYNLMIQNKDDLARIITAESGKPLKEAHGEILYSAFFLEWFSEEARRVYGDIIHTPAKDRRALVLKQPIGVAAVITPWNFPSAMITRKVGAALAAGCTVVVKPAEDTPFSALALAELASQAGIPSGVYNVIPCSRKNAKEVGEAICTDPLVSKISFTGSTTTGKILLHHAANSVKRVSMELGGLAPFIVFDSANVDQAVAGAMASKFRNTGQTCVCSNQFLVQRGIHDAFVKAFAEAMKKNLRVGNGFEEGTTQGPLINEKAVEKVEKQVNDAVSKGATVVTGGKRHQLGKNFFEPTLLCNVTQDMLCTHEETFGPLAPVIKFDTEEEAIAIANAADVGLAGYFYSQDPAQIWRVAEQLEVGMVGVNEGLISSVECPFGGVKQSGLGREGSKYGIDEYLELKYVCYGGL
UniProt P13716: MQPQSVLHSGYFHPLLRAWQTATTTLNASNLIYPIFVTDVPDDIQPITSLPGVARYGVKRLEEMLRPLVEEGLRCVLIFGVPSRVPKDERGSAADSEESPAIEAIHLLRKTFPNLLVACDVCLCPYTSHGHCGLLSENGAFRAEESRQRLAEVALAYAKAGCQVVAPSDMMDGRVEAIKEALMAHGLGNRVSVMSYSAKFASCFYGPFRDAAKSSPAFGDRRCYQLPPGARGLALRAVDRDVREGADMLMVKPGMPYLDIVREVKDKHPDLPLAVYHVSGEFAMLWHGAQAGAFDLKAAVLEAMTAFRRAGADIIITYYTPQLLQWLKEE
UniProt Q9Y672: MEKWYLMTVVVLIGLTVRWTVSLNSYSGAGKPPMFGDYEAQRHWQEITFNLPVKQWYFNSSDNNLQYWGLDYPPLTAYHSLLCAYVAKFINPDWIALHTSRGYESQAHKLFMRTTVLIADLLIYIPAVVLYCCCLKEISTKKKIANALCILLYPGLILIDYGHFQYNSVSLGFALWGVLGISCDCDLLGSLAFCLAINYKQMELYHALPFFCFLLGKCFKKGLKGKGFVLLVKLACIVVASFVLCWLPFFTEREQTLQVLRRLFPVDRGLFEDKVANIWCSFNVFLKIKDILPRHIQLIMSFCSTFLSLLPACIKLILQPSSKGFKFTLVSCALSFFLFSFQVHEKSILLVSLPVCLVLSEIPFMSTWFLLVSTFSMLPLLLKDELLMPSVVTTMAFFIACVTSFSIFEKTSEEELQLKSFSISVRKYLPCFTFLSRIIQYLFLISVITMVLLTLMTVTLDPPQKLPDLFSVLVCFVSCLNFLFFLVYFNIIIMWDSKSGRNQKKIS
UniProt P05091: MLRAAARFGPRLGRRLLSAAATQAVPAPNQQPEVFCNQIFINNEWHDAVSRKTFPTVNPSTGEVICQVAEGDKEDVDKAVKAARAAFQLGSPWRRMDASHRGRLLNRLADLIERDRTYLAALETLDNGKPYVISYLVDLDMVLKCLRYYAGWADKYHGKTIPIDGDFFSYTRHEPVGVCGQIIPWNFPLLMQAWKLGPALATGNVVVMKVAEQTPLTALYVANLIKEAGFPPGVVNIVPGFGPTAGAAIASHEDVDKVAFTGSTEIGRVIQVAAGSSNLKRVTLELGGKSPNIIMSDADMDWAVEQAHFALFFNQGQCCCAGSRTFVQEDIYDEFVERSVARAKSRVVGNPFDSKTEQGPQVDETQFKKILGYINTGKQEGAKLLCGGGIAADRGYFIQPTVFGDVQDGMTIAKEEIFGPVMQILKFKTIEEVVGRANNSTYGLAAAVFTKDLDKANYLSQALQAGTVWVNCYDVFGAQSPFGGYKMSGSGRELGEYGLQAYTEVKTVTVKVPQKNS
UniProt Q8IZ83: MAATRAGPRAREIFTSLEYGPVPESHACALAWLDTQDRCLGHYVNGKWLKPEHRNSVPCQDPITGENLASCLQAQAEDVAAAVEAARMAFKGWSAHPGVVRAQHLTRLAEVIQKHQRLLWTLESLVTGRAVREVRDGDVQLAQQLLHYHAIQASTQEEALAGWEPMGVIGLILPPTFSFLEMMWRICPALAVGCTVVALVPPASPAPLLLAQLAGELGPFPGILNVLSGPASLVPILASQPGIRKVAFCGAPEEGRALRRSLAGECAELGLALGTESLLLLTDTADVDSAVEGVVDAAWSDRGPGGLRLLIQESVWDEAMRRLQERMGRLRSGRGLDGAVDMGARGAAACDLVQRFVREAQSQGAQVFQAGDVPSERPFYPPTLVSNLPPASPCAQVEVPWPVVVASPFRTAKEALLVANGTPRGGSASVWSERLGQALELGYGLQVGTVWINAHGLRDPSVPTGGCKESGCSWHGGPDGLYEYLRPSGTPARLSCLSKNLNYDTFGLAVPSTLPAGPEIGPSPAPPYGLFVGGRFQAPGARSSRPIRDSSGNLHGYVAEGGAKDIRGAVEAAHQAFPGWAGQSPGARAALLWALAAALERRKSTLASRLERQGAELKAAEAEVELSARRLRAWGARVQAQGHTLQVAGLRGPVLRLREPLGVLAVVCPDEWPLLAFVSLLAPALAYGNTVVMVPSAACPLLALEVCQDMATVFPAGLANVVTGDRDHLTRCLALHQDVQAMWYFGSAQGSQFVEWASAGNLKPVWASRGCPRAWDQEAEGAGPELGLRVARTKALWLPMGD
UniProt Q8WVL7: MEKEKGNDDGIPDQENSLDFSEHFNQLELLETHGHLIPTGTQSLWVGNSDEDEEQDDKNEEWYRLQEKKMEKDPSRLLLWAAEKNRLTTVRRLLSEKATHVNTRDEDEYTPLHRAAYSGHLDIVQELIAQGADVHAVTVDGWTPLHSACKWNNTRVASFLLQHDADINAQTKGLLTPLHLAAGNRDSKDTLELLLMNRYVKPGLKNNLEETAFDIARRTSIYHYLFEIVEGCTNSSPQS
UniProt P09972: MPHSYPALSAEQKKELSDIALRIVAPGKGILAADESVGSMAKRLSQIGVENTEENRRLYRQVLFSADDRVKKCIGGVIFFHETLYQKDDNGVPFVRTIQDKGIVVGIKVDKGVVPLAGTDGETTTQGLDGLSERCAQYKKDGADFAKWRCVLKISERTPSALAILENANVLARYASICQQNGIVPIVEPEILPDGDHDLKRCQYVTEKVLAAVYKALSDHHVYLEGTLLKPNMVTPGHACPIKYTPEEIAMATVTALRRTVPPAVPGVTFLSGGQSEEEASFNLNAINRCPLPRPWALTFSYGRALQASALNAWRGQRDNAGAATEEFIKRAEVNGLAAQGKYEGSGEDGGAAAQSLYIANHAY
UniProt Q9UJX6, whole entry, looked up: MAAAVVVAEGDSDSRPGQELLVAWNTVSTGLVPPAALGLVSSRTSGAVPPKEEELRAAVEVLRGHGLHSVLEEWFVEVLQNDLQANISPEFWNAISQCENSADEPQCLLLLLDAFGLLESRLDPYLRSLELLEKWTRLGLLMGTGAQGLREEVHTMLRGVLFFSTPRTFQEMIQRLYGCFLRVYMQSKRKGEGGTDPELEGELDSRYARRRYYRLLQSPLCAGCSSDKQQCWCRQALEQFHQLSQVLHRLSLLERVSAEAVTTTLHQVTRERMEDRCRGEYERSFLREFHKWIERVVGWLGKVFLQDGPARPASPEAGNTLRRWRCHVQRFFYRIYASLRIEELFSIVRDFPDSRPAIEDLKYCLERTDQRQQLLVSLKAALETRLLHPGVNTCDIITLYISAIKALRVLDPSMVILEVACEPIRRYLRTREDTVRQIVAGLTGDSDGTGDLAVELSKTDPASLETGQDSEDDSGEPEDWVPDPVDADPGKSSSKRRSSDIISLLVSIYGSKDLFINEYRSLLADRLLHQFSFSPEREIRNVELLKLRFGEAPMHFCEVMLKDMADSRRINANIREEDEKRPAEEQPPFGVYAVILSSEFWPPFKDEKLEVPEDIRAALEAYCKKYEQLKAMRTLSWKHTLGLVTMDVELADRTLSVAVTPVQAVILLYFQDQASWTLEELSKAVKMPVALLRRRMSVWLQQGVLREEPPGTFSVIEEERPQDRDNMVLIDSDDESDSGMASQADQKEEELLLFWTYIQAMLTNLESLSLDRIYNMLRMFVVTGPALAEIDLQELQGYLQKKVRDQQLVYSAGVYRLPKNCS
UniProt Q6P6C2: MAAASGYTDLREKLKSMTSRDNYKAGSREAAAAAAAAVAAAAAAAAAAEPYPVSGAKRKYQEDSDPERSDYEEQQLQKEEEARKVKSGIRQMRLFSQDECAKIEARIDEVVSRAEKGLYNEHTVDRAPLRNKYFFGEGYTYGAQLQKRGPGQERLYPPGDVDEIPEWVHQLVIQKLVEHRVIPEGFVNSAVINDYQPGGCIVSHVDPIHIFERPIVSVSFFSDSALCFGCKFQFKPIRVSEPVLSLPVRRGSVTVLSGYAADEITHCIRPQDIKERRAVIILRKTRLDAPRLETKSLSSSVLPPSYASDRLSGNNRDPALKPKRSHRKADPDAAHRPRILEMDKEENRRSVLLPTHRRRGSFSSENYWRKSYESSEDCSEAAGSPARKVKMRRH
UniProt Q92572: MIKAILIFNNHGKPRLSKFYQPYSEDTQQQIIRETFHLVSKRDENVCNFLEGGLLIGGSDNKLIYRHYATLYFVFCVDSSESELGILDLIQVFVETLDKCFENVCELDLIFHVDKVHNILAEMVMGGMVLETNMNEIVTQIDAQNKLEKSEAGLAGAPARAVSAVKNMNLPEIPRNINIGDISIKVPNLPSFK

Tests used:
Test in all cases: log2 fold change, soluble protein after heating vs DMSO (PISA); higher = thermal stabilisation; K562 lysate, 10 uM; active = over 0.2 and 3.5 SD of the protein, either way, in both replicates (recomputed)
[1] = compound: CN1CC[C@H](c2c(O)cc(O)c3c(=O)cc(-c4ccccc4Cl)oc23)[C@H](O)C1 [alvocidib]
Method in brief: (§1)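 Log-two fold change in thermal stability relative to solvent controls is reported from duplicates. For each sample, crude K562 extract from dounce-homogenised pellets in PBS pH 7.4 with 1 mM MgCl2, at 1 mg/mL protein, was treated with 10 μM compound for 30 min. Aliquots heated for 3 min across 48°C-58°C were pooled, brought to 0.5% NP-40 at 4°C and cleared at 21,000xg for 90 min. The supernatant was quantified by TMTpro 16plex LC-MS/MS with channel sums equalised.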

[2] = compound: CN1CCc2c(c3ccccc3n2Cc2ccc(C(=O)NO)cc2)C1 [Tubastatin A]
Method in brief: as §1

[3] = compound: CNC(=O)C1=CC=CC=C1NC2=NC(=NC=C2Cl)NC3=C(C=C(C=C3)N4CCOCC4)OC
Method in brief: as §1

[4] = compound: CNC(=O)c1ccc(Nc2ncc(C(F)(F)F)c(NCc3nccnc3N(C)S(C)(=O)=O)n2)cc1 [defactinib]
Method in brief: as §1

[5] = compound: CNc1nc(-c2ccc3c(N)n[nH]c3c2)cc(N2C[C@@H](C(=O)NC3CCCCC3)CC[C@H]2C)n1
Method in brief: as §1

[6] = compound: COC(=O)N[C@@H](C)CNc1nccc(-c2cn(C(C)C)nc2-c2cc(Cl)cc(NS(C)(=O)=O)c2F)n1 [encorafenib]
Method in brief: as §1

[7] = compound: COC(=O)[C@H](CCSC)NC(=O)C1=C(C=C(C=C1)NC[C@H](CS)N)C2=CC=CC=C2
Method in brief: as §1

[8] = compound: COc1cc(Nc2ncc3c(n2)-c2ccc(Cl)cc2C(c2c(F)cccc2OC)=NC3)ccc1C(=O)O [alisertib]
Method in brief: as §1

[9] = compound: COc1cc2nc(-c3cc(F)ccc3O)nc(N[C@@H]3CNC[C@H]3C(C)(C)O)c2cc1OC
Method in brief: as §1

[10] = compound: COc1cc2ncnc(Nc3ccc(F)c(Cl)c3)c2cc1OCCCN1CCOCC1 [gefitinib]
Method in brief: as §1

Measured: log2 fold change

ANGEL2 (UniProt Q5VTE6)
inactive: [1] 0.066 | [2] 0.042 | [3] -0.107 | [4] 0.022 | [5] 0.012 | [6] 0.027 | [7] -0.002 | [8] -0.117 | [9] 0.093 | [10] -0.206

ANXA4 (UniProt P09525)
inactive: [1] 0.017 | [2] 0.024 | [3] -0.015 | [4] -0.013 | [5] -0.043 | [6] 0.006 | [7] 0.046 | [8] 0.024 | [9] 0.003 | [10] 0.019

AMBRA1 isoform 5 (UniProt Q9C0C7)
inactive: [1] -0.1 | [2] 0.073 | [3] 0.057 | [4] 0.027 | [5] 0.066 | [6] 0.067 | [7] 0.049 | [8] 0.002 | [9] -0.011 | [10] -0.016

ALDH5A1 isoform 2 (UniProt P51649)
inactive: [1] 0.063 | [2] 0.048 | [3] 0.007 | [4] 0.016 | [5] -0.02 | [6] -0.028 | [7] 0.077 | [8] 0.001 | [9] 0.006 | [10] -0.042

ALAD (UniProt P13716)
inactive: [1] -0.028 | [2] -0.008 | [3] 0.011 | [4] -0.01 | [5] 0.015 | [6] 0.007 | [7] -0.019 | [8] -0.046 | [9] -0.013 | [10] 0.03

ALG6 (UniProt Q9Y672)
inactive: [1] -0.043 | [2] 0.059 | [3] 0.034 | [4] 0.034 | [5] 0.131 | [6] 0.091 | [7] -0.044 | [8] -0.003 | [9] 0.032 | [10] -0.052

ALDH2 (UniProt P05091)
active: [3] 0.437
inactive: [1] 0.059 | [2] -0.006 | [4] -0.03 | [5] -0.051 | [6] 0.006 | [7] -0.03 | [8] 0.037 | [9] -0.016 | [10] 0.014

ALDH16A1 (UniProt Q8IZ83)
inactive: [1] -0.021 | [2] -0.003 | [3] -0.01 | [4] 0.001 | [5] 0.003 | [6] 0.022 | [7] -0.016 | [8] -0.034 | [9] -0.014 | [10] -0.012

AMMECR1 (UniProt Q9Y4X0)
inactive: [1] -0.014 | [2] 0.022 | [3] 0.02 | [4] 0.02 | [5] 0.003 | [6] 0.02 | [7] -0.01 | [8] -0.031 | [9] 0.011 | [10] -0.019

ANXA7 (UniProt P20073)
inactive: [1] 0.007 | [2] -0.006 | [3] 0.012 | [4] -0.037 | [5] -0.055 | [6] -0.029 | [7] 0.023 | [8] 0.013 | [9] -0.003 | [10] -0.022

ANKRD49 (UniProt Q8WVL7)
inactive: [1] -0.033 | [2] -0.02 | [3] 0.01 | [4] 0.014 | [5] 0.028 | [6] 0.002 | [7] 0.002 | [8] -0.006 | [9] -0.042 | [10] -0.024

ALDOC (UniProt P09972)
inactive: [1] 0.008 | [2] 0.013 | [3] -0.005 | [4] 0.029 | [5] -0.016 | [6] -0.012 | [7] -0.047 | [8] 0.005 | [9] -0.027 | [10] -0.031

Two records drawn at random from the list so far, as already listed:
ANKRD49 (UniProt Q8WVL7)
inactive: [1] -0.033 | [2] -0.02 | [3] 0.01 | [4] 0.014 | [5] 0.028 | [6] 0.002 | [7] 0.002 | [8] -0.006 | [9] -0.042 | [10] -0.024

ALDOC (UniProt P09972)
inactive: [1] 0.008 | [2] 0.013 | [3] -0.005 | [4] 0.029 | [5] -0.016 | [6] -0.012 | [7] -0.047 | [8] 0.005 | [9] -0.027 | [10] -0.031

Following part:

ANAPC2 (UniProt Q9UJX6)
inactive: [1] 0.001 | [2] -0.098 | [3] -0.001 | [4] -0.009 | [5] -0.008 | [6] 0.038 | [7] 0.018 | [8] 0.02 | [9] 0.001 | [10] 0.001

ALKBH5 (UniProt Q6P6C2)
inactive: [1] -0.006 | [2] 0.121 | [3] -0.023 | [4] -0.038 | [5] 0.105 | [6] -0.068 | [7] 0.073 | [8] 0.025 | [9] 0.092 | [10] -0.032

AP3S1 (UniProt Q92572)
inactive: [1] 0.001 | [2] -0.027 | [3] 0.008 | [4] -0.002 | [5] 0.061 | [6] 0.119 | [7] -0.137 | [8] 0.008 | [9] 0.04 | [10] 0.022
